Reference: PubChem BioAssay AID1307 (SRMLSC, 2008)
Fewer than 10 of roughly 1,200 compounds were called active.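 The calls were made as follows: active = inhibition reaching a set limit at one or more tested concentrations; inactive = inhibition under that limit at every dose.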 The list shows a part of the results. Entries with a potency or affinity are not part of this list.

Test: RAM pathway signaling blockade in S. cerevisiae – dose response (AID 1307);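 also: 0% = DMSO vehicle wells and 100% = 10 µM 1-NA-PP1 control; higher inhibition means more yeast growth since RAM block rescues cells from 5-FOA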
Conditions: S. cerevisiae RAM network URA3 reporter, 5-FOA growth OD615, hits give high values, yeast express analog-sensitive mutant Cbk1 kinase; at 100 µM unless noted

Max inhibition, inactive:
CCCCCOc1ccc(CSc2ncn[nH]2)cc1 1.43% [at 6.25 µM], COc1ccc(CNC(=O)c2cccc(-c3ccc(C)c4ccccc34)n2)cc1 5.18%, C=CCn1c(COc2ccc3c(c2)CCCC3)nnc1SCC(=O)Nc1cccc(SC)c1 3.16% [at 50 µM], COc1ccccc1-n1cnc2c(c1=O)c1nc3ccccc3nc1n2-c1ccc(C)cc1 8.35%, COc1cc(-c2nc(-c3cccc(C(F)(F)F)c3)no2)cc(OC)c1OC 1.08% [at 3.125 µM], O=c1c2ccccc2c(C=NCCc2ccccc2)c(O)n1Cc1ccccc1 4.57%, COC(=O)c1nn(-c2ccccc2)c(Cl)c1/C=N/OCc1ccc(Cl)cc1Cl 2.89% [at 0.782 µM], COc1ccc(NC(=O)N2CCCC(c3nc(-c4ccc(C(C)C)cc4)no3)C2)cc1 (stereo not given) 1.82% [at 3.125 µM], CCCCCCCCNC(=O)CC(NS(=O)(=O)c1ccc(NC(C)=O)cc1)C(C)C (stereo not given) 2.68% [at 50 µM], Cc1cc(C)n(-c2ccc(C(=O)Oc3ccc4c(c3)OCO4)cc2)n1 3.58%, CCn1c(SCc2nc3ccccc3c(=O)[nH]2)nc2ccccc21 1.27% [at 1.563 µM], O=C(CSc1nc(-c2ccccc2)cs1)Nc1ccccc1[N+](=O)[O-] 2.56% [at 1.563 µM], Cc1cccc(N2CCN(C(=O)c3cnn4c(C(F)F)cc(-c5ccccc5)nc34)CC2)c1C 6.71%, CCc1ccc(N/C(SCc2cccc(F)c2)=C(/C#N)C(=O)NCc2ccco2)cc1 2.59%, CC(C)CNS(=O)(=O)c1ccc(CCC(=O)Nc2cc(Cl)ccc2Oc2ccccc2)cc1 4.87% [at 25 µM], Cc1ccccc1OCCC(=O)Nc1cccc(S(=O)(=O)Nc2ccccc2Cl)c1 2.67% [at 0.196 µM], N#C/C(=C\c1c[nH]c2ccccc12)C(=O)Nc1ncc(Cc2ccc(Cl)cc2Cl)s1 9.09%, O=C(CC(Nc1ccccc1Cl)C(=O)OCC(=O)c1cccs1)c1ccccc1 (stereo not given) 3.84% [at 3.125 µM], COc1cc2c(=O)n(Cc3ccco3)c(=O)n(CC(=O)c3ccc(Br)cc3)c2cc1OC 3.72% [at 0.196 µM], O=C(c1cccc(Cl)c1)N1CCCC(c2ccc(Cl)cc2)=N1 2.26% [at 6.25 µM], O=C(/C=C/c1ccc2c(c1)OCCCO2)c1ccc2ccccc2c1O 5.19%, O=C(NCc1ccccc1)c1cccc(COc2ccc3c(c2)CCC3)c1 9.25%, O=C(CSc1ccc(Cl)cc1)N1CCN(c2ccc(Cl)cc2[N+](=O)[O-])CC1 2.64% [at 50 µM], CCCC(c1nnnn1Cc1ccco1)N1CCN(c2cc(Cl)ccc2C)CC1 (stereo not given) 8.35%, COc1ccc(Cn2nnnc2C(C(C)C)N(Cc2ccco2)Cc2cccs2)cc1 (stereo not given) 2.82%, CCCOc1ccc(N2C(=O)CC(N(CCc3ccccc3)C(=O)c3ccccc3)C2=O)cc1 (stereo not given) 3.2% [at 1.563 µM], C=CCc1cccc(/C=N/NC(=O)C(C)Nc2ccc(C)cc2)c1O (stereo not given) 2.46% [at 0.782 µM], O=C(c1cccs1)N(CC1CCCO1)c1nc(-c2ccccc2)cs1 (stereo not given) 2.67% [at 3.125 µM], CCCCNS(=O)(=O)c1ccc(NC(=O)C(Sc2ccccc2)c2ccccc2)cc1 (stereo not given) 2.87% [at 3.125 µM], COc1ccc(CCN(Cc2cccs2)S(=O)(=O)c2ccc(C(=O)O)cc2)cc1OC 5.39%, C=CCSC1=N/C(=C\c2cc(OC)c3c(c2)OCO3)C(=O)S1 3.36% [at 3.125 µM], CC1CCCN(C(=O)C(C)Sc2nc(-c3ccccc3)cc(C(F)(F)F)n2)C1 (stereo not given) 3.6% [at 25 µM], COc1cccc(CN(Cc2ccco2)C(c2ccc(F)cc2)c2nnnn2C(C)(C)C)c1 (stereo not given) 5.18%, Cc1ccc(S(=O)(=O)N2CCC(=O)N(C(COCc3ccc(C(F)(F)F)cc3)C(C)C)CC2)cc1 (stereo not given) 3.08% [at 1.563 µM], CCOc1cc(C2NN=C(c3ccccc3)S2)ccc1OCc1ccc(F)cc1 (stereo not given) 3.88%, COc1ccc(N=C2S/C(=C\c3ccc(C)s3)C(=O)N2CC(C)C)cc1 4.62% [at 50 µM], C/C(=N\Nc1nc2c(s1)CCCC2)c1ccc(Cl)cc1 3.46% [at 1.563 µM], COc1ccc(-c2nc3ccccc3c(=O)n2CCOc2ccc(C)cc2C)cc1 4%, Cc1cccc(CSCCNC(=O)c2ccc(N(C)S(=O)(=O)c3ccccc3)cc2)c1 4%, COc1cccc(C(=O)/C=C/c2ccc(N3CCCCC3)c([N+](=O)[O-])c2)c1 4.24%, CCOCCCNC(=S)N1CCCN(c2nc3c(C)c(C)ccc3cc2C#N)CC1 6.21%, O=C(NCc1ccccc1)C1=C[C@H](c2ccc(C(F)(F)F)cc2)C[C@H](OCc2ccc(CO)cc2)O1 2.75% [at 6.25 µM], CCCN(CCC)c1nc2ccccc2nc1C(C#N)C(=O)OC(C)COC (stereo not given) 2.6%, O=S(=O)(NCCSCc1ccc(Cl)cc1Cl)c1ccc2c(c1)OCCO2 2.05% [at 12.5 µM], C/C(N)=C(/C#N)C(=O)CSc1nc2ccccc2c(=O)n1-c1ccc(C)c(Cl)c1 8.31%, CN1C(=O)/C(=C/c2ccccc2OCc2cccc(F)c2)NC1=S 9.68%, Cc1ccc(S(=O)(=O)N2c3cc(C)ccc3OCC2C(C)(C)C)cc1 (stereo not given) 3.04%, Cc1ccccc1C(=O)NC(=S)Nc1ccc(Oc2ccc(Cl)cc2)cc1 3.72% [at 50 µM], Cc1ccc(N2N=C(c3ccc(F)cc3)CC2c2ccco2)cc1 (stereo not given) 2.48% [at 0.391 µM], Cc1ccc(NC(=O)CCSc2nnnn2-c2ccc3c(c2)OCO3)cc1C 1.94% [at 0.196 µM]
